Five substances from PMC6530537 (Chemical Science, 2019) can be followed below.

The data set can be described thus: general procedure: Fmoc solid-phase peptide synthesis. The conditions noted are these: whole synthesis, Analytical HPLC, Agilent 1260 Infinity, Supelcosil ABZ+PLUS column, 0.05% TFA water/MeCN, UV 220 and 254 nm.

Some peptides are written in HELM: one residue between dots, names in brackets for other building blocks, links after the first $.

As for Ac-CRLYGFIHGC-NH, the “final HPLC purity” value was found to be 90%.

As for “Ac-CRLYGFKIHGC-NH2 (also: cyclic (positions not given here))”, the “final HPLC purity” value amounted to 84%.

In the case of Ac-GCRLYGFKIHGCG-NH2, the “final HPLC purity” value turned out to be 99%.

Take Ac-MSGDEMIFDPTMS(K)8P-NH2: the “final HPLC purity” value is given as 90%.

Turning to “PEPTIDE1{[ac].G.C.R.L.Y.G.F.K.I.H.G.C.G.[am]}$PEPTIDE1,PEPTIDE1,3:R3-13:R3$$$V2.0”, the “final HPLC purity” value is on record as 87%.
